For one substance, binding results are on record in patent US20030087319A1 (published 2003).

The chains behind the UniProt entries cited, without tags or fusion partners. Where a name states a change or a piece, a line headed by the entry shows the natural chain unless it says otherwise.
UniProt P55210: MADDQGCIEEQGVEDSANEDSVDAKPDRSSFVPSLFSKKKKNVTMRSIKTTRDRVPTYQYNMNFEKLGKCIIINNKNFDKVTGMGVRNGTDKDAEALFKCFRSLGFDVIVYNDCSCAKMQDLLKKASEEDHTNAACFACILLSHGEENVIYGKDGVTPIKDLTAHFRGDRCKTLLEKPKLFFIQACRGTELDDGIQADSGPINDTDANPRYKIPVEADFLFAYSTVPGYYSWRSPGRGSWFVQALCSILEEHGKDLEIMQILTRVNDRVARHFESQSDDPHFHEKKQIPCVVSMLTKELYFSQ
UniProt O15392: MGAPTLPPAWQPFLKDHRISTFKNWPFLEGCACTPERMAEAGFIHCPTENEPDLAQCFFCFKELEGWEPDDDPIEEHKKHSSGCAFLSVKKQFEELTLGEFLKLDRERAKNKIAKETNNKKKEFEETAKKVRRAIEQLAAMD

These are yes or no findings as the source states them, for the method shown. Binding can be weak; no strength is given.

This assay concerns the target recombinant active caspase-7 (PharMingen) (UniProt P55210). In words: in vitro binding, 35S-labeled survivin with recombinant active caspase-7, immunoprecipitation with caspase-specific antibody, SDS-PAGE, autoradiography.

With “survivin (35[S]-methionine-labeled, in vitro translated) (from UniProt O15392 1-142)”, the binding result is reported as “binds”.
